From patent US5969115A, “Bisazo dyes and their preparation and use” (Ilford Imaging Switzerland GMBH, priority 1997, dated 1999)

Assays:
[1] = Smudge resistance of printed samples; parameters: key: ⊕: No or little smear; .diamond.: Slight smear; .phi.: Severe smear; conditions: rubbing with slightly wet finger; for Smudge resistance: Table 6
Experimental: (§1) The present invention, as far as it relates to inks, is further illustrated by the following examples using dyes according to our invention described in Tables 1 and 2 and dyes representing the state of the art described in Tables 3 and 4. 100 g of each ink were prepared by heating the necessary amount of dye (3-7 g), glycerol (5 g), tetraethylenglycol (1.1 g). and a biocide solution (Promexal X50, available from Zeneca, Manchester, England) (1.2 g) together with water at a temperature of 50° C. under stirring for one hour. The resulting solution was cooled down to 20° C., pH was adjusted to 7.5 and passed through a Millipore® filter of 0.5 μm pore diameter. The dye quantity was adjusted in a way that the density of the printed images was the same for all dyes.
(§2) 30 g of gelatin with a high isoelectric point (type St 70,810, available from Deutsche Gelatinefabriken, Eberbach, Germany) were dissolved in 360 ml of deionised water. 1 g of a surfactant (Olin 10G, available from Olin Corporation, Norwalk, USA) were added to this solution. Immediately before coating 6.6 g of a solution of 2-(4-dimethyl-carbamoyl-pyridino)-ethanesulfonate (3%) were added and pH was adjusted to 6.5. 100 g/m^2 of this solution was then coated onto a resin coated paper support using a bar coater. The recording medium prepared in this way was dried for 12 hours.
(§3) The inks were then jetted onto this recording medium with an HP560 ink jet printer from Hewlett-Packard. The properties of the printed samples were evaluated later on.
The smudge behavior of printed samples was determined by rubbing a dye patch of high density with a slightly wet finger. The smudge resistance is indicated in the following way:
⊕: No or little smear

[2] = Bronzing of printed samples; conditions: in words
Experimental: as §1, §2, §3

| SMILES | Smudge resistance [1] | bronzing [2] | Smudge behavior ([1]; state of the art dyes, Table 7) |
| --- | --- | --- | --- |
| O=S(=O)(O)CCNc1ccc2cc(S(=O)(=O)O)c(N=Nc3ccc(N=Nc4cccc(CO)c4)c4ccc(S(=O)(=O)O)cc34)c(O)c2c1 [Compound 1] | .diamond. | – | – |
| O=C(O)c1cccc(N=Nc2ccc(N=Nc3c(S(=O)(=O)O)cc4ccc(NCCS(=O)(=O)O)cc4c3O)c3cc(S(=O)(=O)O)ccc23)c1 [Compound 2] | .diamond. | – | – |
| O=S(=O)(O)CCNc1ccc2cc(S(=O)(=O)O)c(N=Nc3ccc(N=Nc4ccc(S(=O)(=O)O)cc4)c4ccc(S(=O)(=O)O)cc34)c(O)c2c1 [Compound 3] | .diamond. | – | – |
| O=S(=O)(O)CCNc1ccc2cc(S(=O)(=O)O)c(N=Nc3ccc(N=Nc4ccc(S(=O)(=O)O)cc4)c4cc(S(=O)(=O)O)ccc34)c(O)c2c1 [Compound 4] | ⊕ | – | – |
| O=S(=O)(O)CCNc1ccc2cc(S(=O)(=O)O)c(N=Nc3ccc(N=Nc4ccc(S(=O)(=O)O)cc4)c4ccc(S(=O)(=O)O)cc34)c(O)c2c1 [Compound 5] | ⊕ | do not show bronzing | – |
| O=S(=O)(O)CCNc1ccc2cc(S(=O)(=O)O)c(N=Nc3ccc(N=Nc4cccc(S(=O)(=O)O)c4)c4cc(S(=O)(=O)O)ccc34)c(O)c2c1 [Compound 6] | ⊕ | – | – |
| O=C(O)Cc1ccc(N=Nc2ccc(N=Nc3c(S(=O)(=O)O)cc4ccc(NCCS(=O)(=O)O)cc4c3O)c3cc(S(=O)(=O)O)ccc23)cc1 [Compound 7] | ⊕ | do not show bronzing | – |
| O=S(=O)(O)CCNc1ccc2cc(S(=O)(=O)O)c(N=Nc3ccc(N=Nc4ccc(CS(=O)(=O)O)cc4)c4ccc(S(=O)(=O)O)cc34)c(O)c2c1 [Compound 8] | ⊕ | do not show bronzing | – |
| O=S(=O)(O)CCNc1ccc2cc(S(=O)(=O)O)c(N=Nc3ccc(N=Nc4ccc(CS(=O)(=O)O)cc4)c4cc(S(=O)(=O)O)ccc34)c(O)c2c1 [Compound 9] | ⊕ | – | – |
| O=S(=O)(O)CCNc1ccc2cc(S(=O)(=O)O)c(N=Nc3ccc(N=Nc4ccc(CCO)cc4)c4ccc(S(=O)(=O)O)cc34)c(O)c2c1 [Compound 11] | ⊕ | – | – |
| O=C(O)CCc1ccc(N=Nc2ccc(N=Nc3c(S(=O)(=O)O)cc4ccc(NCCS(=O)(=O)O)cc4c3O)c3cc(S(=O)(=O)O)ccc23)cc1 [Compound 12] | ⊕ | do not show bronzing | – |
| O=C(O)CCC(NC(=O)c1ccc(N=Nc2ccc(N=Nc3c(S(=O)(=O)O)cc4ccc(NCCS(=O)(=O)O)cc4c3O)c3cc(S(=O)(=O)O)ccc23)cc1)C(=O)O (stereo not drawn) [Compound 14] | .diamond. | – | – |
| O=C(O)c1ccc(N=Nc2ccc(N=Nc3c(S(=O)(=O)O)cc4ccc(NCCS(=O)(=O)O)cc4c3O)c3cc(S(=O)(=O)O)ccc23)cc1Cl [Compound 15] | ⊕ | do not show bronzing | – |
| O=S(=O)(O)CCNc1ccc2cc(S(=O)(=O)O)c(N=Nc3ccc(N=Nc4cc(Cl)c(S(=O)(=O)O)cc4Cl)c4ccc(S(=O)(=O)O)cc34)c(O)c2c1 [Compound 18] | ⊕ | do not show bronzing | – |
| O=S(=O)(O)CCNc1ccc2cc(S(=O)(=O)O)c(N=Nc3ccc(N=Nc4cc(S(=O)(=O)O)c5cccc(S(=O)(=O)O)c5c4)c4ccc(S(=O)(=O)O)cc34)c(O)c2c1 [Compound 19] | ⊕ | – | – |
| O=S(=O)(O)CCNc1ccc2cc(S(=O)(=O)O)c(N=Nc3ccc(N=Nc4ccc5c(S(=O)(=O)O)cc(S(=O)(=O)O)cc5c4)c4ccc(S(=O)(=O)O)cc34)c(O)c2c1 [Compound 20] | ⊕ | do not show bronzing | – |
| Nc1ccc2cc(S(=O)(=O)O)c(N=Nc3ccc(N=Nc4cc(C(=O)O)cc(C(=O)O)c4)c4ccc(S(=O)(=O)O)cc34)c(O)c2c1 [Compound 24, reference compound] | – | – | ⊕ |
